Results as given in publication PMC5596338 (Journal of Bone and Mineral Research, 2017).

Assay: Mineral binding affinity: elution from hydroxyapatite (HAP) columns by FPLC
Format: physicochemical
Settings: HAP column, mean ± SE

Which “HAP affinity (mean retention time/min)” value does the source give for `NCCCC(O)(P(=O)(O)O)P(=O)(O)O` [Alendronate, alendronate] here?
Its value is 17.5 ± 0.14 min.
